From PubChem BioAssay AID1347076 (National Center for Advancing Translational Sciences (NCATS), 2019)
Screen size: about 400,000 compounds; about 13,000 (3.2%) were called active. This list was built around the results that the source calls inconclusive (neither active nor inactive); the mix of calls is not that of the screen. The call rests on the fitted dose curve; in most records, active means well fitted cell-killing curve with a large enough effect; inconclusive means small, poorly fitted or top-dose-only effect, or effect the other way; inactive means flat fitted curve, though single readings scatter. Potencies beside an inconclusive call are fits to weak or partial responses and may not hold up.

experiment: qHTS assay for MDR1-selective chemotherapeutics: Primary screen using the drug-selected MDR subline cells KB-V1; conditions: KB-V1 MDR cells viability, CellTiter-Glo, 72 h; activity change, negative = cytotoxicity: at 46.1 µM (top of the series); further: nearly all actives have a fitted effect of over 60% in size
How it was run: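 KB-V1 MDR subline cells in DMEM (phenol-red free, 10% FBS) exposed to compounds in qHTS concentration series for 72 h at 37 degrees C. Viability read by CellTiter-Glo luminescence; concentration-effect curves fitted after normalization and correction.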
On the % scale 0 is the no-effect control and ±100 the full control effect; potency means the concentration at half of the fitted maximal effect.

SMILES	Potency	activity change, negative = cytotoxicity
CCCN(CCC)CCNC(=O)C1CCN(Cc2nc(-c3ccc(Cl)cc3)oc2C)CC1	inconclusive: 20.6 µM [cytotoxic, single point]	
Cc1oc(-c2ccc(C(=O)NCCC(C)C)cc2)nc1CS(=O)(=O)c1ccccc1	inconclusive: 3.26 µM [cytotoxic, full curve]	
CCCCn1c(N)c(N(CC(C)C)C(=O)CSCC(=O)Nc2ccc(OC)cc2)c(=O)[nH]c1=O	inconclusive: 2.59 µM [rising, full curve, poor fit]	
Cc1onc(-c2ccccc2)c1C(=O)Nc1ccc(S(=O)(=O)N2CCCCC2)cc1	inconclusive: 16.4 µM [cytotoxic, single point]	
CC(O)CNc1nc2c(c(=O)n(C)c(=O)n2C)n1Cc1cccc(Br)c1 (configuration not stated)	active: 14.6 µM	
CCOC(=O)c1c(C)[nH]c(C)c1S(=O)(=O)N1CCCC(C(=O)Nc2ncccc2C)C1 (configuration not stated)	inconclusive: 14.6 µM [rising, partial curve, poor fit]	
CCCCn1nc(C(=O)Nc2cccc(C(=O)NC3CC3)c2)c2ccccc2c1=O	inconclusive: 9.2 µM [cytotoxic, partial curve, poor fit]	
O=C(O)c1ccc(NC2=C/C(=N/S(=O)(=O)c3cccs3)c3ccccc3C2=O)cc1	inconclusive: 29.1 µM [cytotoxic, single point]	
Cc1ccc(Cn2c(SCC(C)C)nc3c2c(=O)[nH]c(=O)n3C)cc1	inconclusive: 10.3 µM [cytotoxic, partial curve]	
CC(=O)c1ccc(OCC(O)CN2CCN(S(=O)(=O)c3c(C)c(C)cc(C)c3C)CC2)cc1 (configuration not stated)	inconclusive: 2.31 µM [cytotoxic, partial curve, poor fit]	
CCc1cc(=O)n2[nH]c(C)c(-c3ccccc3OC)c2n1	inconclusive: 2.91 µM [rising, partial curve, poor fit]	
CS(=O)(=O)N(Cc1nc2sc3c(c2c(=O)[nH]1)CCCC3)C1CCCCC1	active: 16.4 µM	
COC(=O)c1c(C)[nH]c(C(=O)C(C)OC(=O)C2=NNC(=O)CC2)c1C (configuration not stated)	active: 5.8 µM	
COc1ccccc1N=C1NC(=O)/C(=C/c2ccc(N(C)C)cc2)S1	active: 7.31 µM	
O=C(NCc1cnc2ccccn12)C1CCC(=O)N(Cc2ccccc2F)C1 (configuration not stated)	inconclusive: 5.8 µM [rising, partial curve, poor fit]	
c1ccc(-c2cnc(CSc3nnc4ccccn34)o2)cc1	inconclusive: 10.3 µM [cytotoxic, partial curve, poor fit]	
O=C(CSc1ccc(-c2cccc([N+](=O)[O-])c2)nn1)N1CCCCCC1	inconclusive: 9.2 µM [cytotoxic, partial curve]	
CCOc1ccc(NCC(=O)Nc2ccc(Cl)cc2C)cc1	inconclusive: 18.4 µM [cytotoxic, partial curve]	
CSC(=S)NN=C(C)c1cccc(C)n1	inconclusive: 18.4 µM [cytotoxic, partial curve, poor fit]	
N#Cc1ccc(-c2csc(NC(=O)C3CC3)n2)cc1	inconclusive: 29.1 µM [cytotoxic, single point]	
O=C(Nc1nc(-c2ccccn2)cs1)c1ccccc1-n1cnnn1	inconclusive: 0.651 µM [cytotoxic, full curve, poor fit]	
O=C(COC(=O)c1ccccc1NS(=O)(=O)c1cccs1)NC1CCCCC1		inactive: -7.71%
O=S(=O)(Nc1ccncc1)c1cc(Cl)c(Cl)cc1Cl		inactive: 5.61%

SMILES	Potency	activity change, negative = cytotoxicity
COc1cc2nc(NCC3CCCO3)n3nc(-c4cccnc4)nc3c2cc1OC (configuration not stated)		inactive: -3.11%
Cc1ccc(C2=NN(S(=O)(=O)c3ccccc3)C(c3ccco3)C2)cc1 (configuration not stated)	inconclusive: 29.1 µM [cytotoxic, single point]	
COc1ccc(/C=N/Nc2nncc3ccccc23)cc1	inconclusive: 29.1 µM [cytotoxic, single point]	
O=C(Cn1nc(CNc2ccc(Br)cc2)[n+]2c1CCCCC2)c1ccc([N+](=O)[O-])cc1		inactive: 1.05%
Cc1nn(C)c(C)c1CN(C)S(=O)(=O)c1ccc2ccccc2c1	inconclusive: 11.2 µM [cytotoxic, partial curve, poor fit]	
NS(=O)(=O)c1ccc(NC(=O)C(Sc2ccccc2)c2ccccc2)cc1 (configuration not stated)		inconclusive: 38%
COc1cc(C(=O)NC(C)C2CC3CCC2C3)ccc1OC(F)F (configuration not stated)	active: 20.6 µM	
Cc1cccc(C(=O)NCC(c2cccs2)S(=O)(=O)c2cccs2)c1 (configuration not stated)		inactive: -4.95%
COc1cc(CC(=O)N(C)CC(=O)Nc2ccc(Cl)c(C(F)(F)F)c2)cc(OC)c1OC	inconclusive: 18.4 µM [cytotoxic, single point]	
Cc1ccccc1NS(=O)(=O)c1ccc(C(=O)N2CCN(c3ccccn3)CC2)cc1	inconclusive: 18.4 µM [cytotoxic, single point]	
O=C(c1ccc(-c2nc3ccccc3s2)s1)N1CCOCC1	inconclusive: 3.66 µM [cytotoxic, partial curve, poor fit]	
CCOC(=O)N1CCN(S(=O)(=O)c2ccc(F)c(C(=O)Nc3ccc(C(C)C)cc3)c2)CC1	active: 6.51 µM	
CSc1n[nH]c(-c2ccc(C(F)(F)F)cc2)n1		inactive: 1.58%
COC(=O)CCS(=O)(=O)c1nc(-c2ccccc2)cc(C(F)(F)F)n1	inconclusive: 29.1 µM [cytotoxic, single point]	
COc1ccc(C(=O)Nc2ccc(NC(=O)c3cccs3)cc2)cc1OC		inactive: 8.91%
COc1ccccc1CCNC(=O)C(=O)NCC(c1ccco1)S(=O)(=O)c1cccs1 (configuration not stated)	inconclusive: 8.2 µM [cytotoxic, partial curve, poor fit]	
CCN1CCN(Cc2c(O)ccc3oc(C)c(C(=O)Nc4ccc(OC)cc4)c23)CC1		inactive: 0%
Cc1cc(=O)oc2cc(O[C@@H]3O[C@H](CO)[C@H](O)[C@H](O)[C@H]3O)ccc12		inactive: 15.2%
CCCC[n+]1c(-c2ccc(Cl)cc2Cl)csc1Nc1ccccc1	inconclusive: 14.6 µM [cytotoxic, partial curve, poor fit]	
C[C@H](CO)N1C[C@H](C)[C@H](CN(C)Cc2ccncc2)Oc2cc(-c3ccccc3F)ccc2S1(=O)=O		inconclusive: 32.3%
Cc1cc(F)ccc1S(=O)(=O)N1CCCOC1CNC(=O)C(=O)NCCc1c[nH]c2ccccc12 (configuration not stated)	active: 3.26 µM	
Cc1ccc(NC(=O)c2cc3ccccc3o2)cc1Cl	inconclusive: 29.1 µM [cytotoxic, single point]	
CCN1C(=O)C(C(=O)c2ccccc2)SC1=S (configuration not stated)	inconclusive: 18.4 µM [cytotoxic, partial curve, poor fit]	

Single values from above.
Potency with O=C(c1ccc(-c2nc3ccccc3s2)s1)N1CCOCC1 is entered as inconclusive: 3.66 µM [cytotoxic, partial curve, poor fit]
Potency with Cc1oc(-c2ccc(C(=O)NCCC(C)C)cc2)nc1CS(=O)(=O)c1ccccc1 is entered as inconclusive: 3.26 µM [cytotoxic, full curve]
Potency with Cc1nn(C)c(C)c1CN(C)S(=O)(=O)c1ccc2ccccc2c1 is entered as inconclusive: 11.2 µM [cytotoxic, partial curve, poor fit]
activity change, negative = cytotoxicity with Cc1cc(=O)oc2cc(O[C@@H]3O[C@H](CO)[C@H](O)[C@H](O)[C@H]3O)ccc12 is entered as inactive: 15.2%
Potency with c1ccc(-c2cnc(CSc3nnc4ccccn34)o2)cc1 is entered as inconclusive: 10.3 µM [cytotoxic, partial curve, poor fit]
Potency with CCCC[n+]1c(-c2ccc(Cl)cc2Cl)csc1Nc1ccccc1 is entered as inconclusive: 14.6 µM [cytotoxic, partial curve, poor fit]

(more compounds)

SMILES	Potency	activity change, negative = cytotoxicity
CCOC(=O)c1cnn2c(N)c(C#N)cnc12	inconclusive: 23.1 µM [cytotoxic, single point]	
Cc1ccc(SCc2[nH]nc3c2C2(CCSCC2)C(C#N)=C(N)O3)cc1	inconclusive: 9.2 µM [rising, partial curve, poor fit]	
CCOC(=O)c1ccc(NS(=O)(=O)c2c(C)nc3sccn3c2=O)cc1		inactive: -18.8%
CCn1c(SCC(=O)Nc2cc3oc4ccccc4c3cc2OC)nnc1-c1cccs1		inconclusive: -0.618%
CCN(CC)C(=O)C1=C(C)N(CCC2=CCCCC2)C(=O)C(CC(=O)NCc2cccc3ccccc23)C1 (configuration not stated)	inconclusive: 32.6 µM [cytotoxic, single point]	
O=S(=O)(c1ccccc1)N1CCC(O)(CSc2ccc(Cl)cc2)CC1	active: 23.1 µM	
COc1ccc([N+](=O)[O-])c(C=CC(=O)c2ccccn2)c1	inconclusive: 29.1 µM [cytotoxic, single point]	
NNC(=O)c1cccn(Cc2cccc(C(F)(F)F)c2)c1=O	inconclusive: 29.1 µM [cytotoxic, single point]	
COc1ccc(N(CC(=O)Nc2ccc(Cc3ccncc3)cc2)S(=O)(=O)c2ccccc2)cc1	inconclusive: 9.2 µM [cytotoxic, partial curve, poor fit]	
N#C/C(=C\c1ccc(O)c(O)c1)C(=O)NCCCc1ccccc1	inconclusive: 18.4 µM [cytotoxic, single point]	
Cc1cc(N/N=C/c2ccc(O)cc2)c2cccc(C)c2n1		inactive: -4.73%
COc1ccc(C(=O)NCC(c2cccs2)N2CCc3ccccc32)c(OC)c1 (configuration not stated)	inconclusive: 5.17 µM [cytotoxic, full curve]	
CCOC(=O)N1CCc2c(sc3c2c(=O)n(-c2ccc(CC)cc2)c(=O)n3CC(=O)NCC2CCCO2)C1 (configuration not stated)	inconclusive: 32.6 µM [cytotoxic, single point]	
CCOC(=O)CC(=O)CSc1ncnc2c1nnn2-c1ccc(OC)cc1		inactive: -13.8%
O=C(COC(=O)CCC(=O)c1ccccc1)NCCc1ccccc1	inconclusive: 16.4 µM [rising, single point]	
COc1ccc(CC(=O)Nc2nnc(C(C)C)s2)cc1OC	inconclusive: 29.1 µM [cytotoxic, single point]	
CCOc1cc(-c2c(C)c(CC)nc(N)c2C#N)ccc1O	active: 18.4 µM	
O=C(CSc1ncnc2sc3c(c12)CCCC3)N1CCC(c2noc3ccc(F)cc23)CC1	inconclusive: 9.2 µM [cytotoxic, partial curve, poor fit]	
C=CCCCCCCCCc1nc(SCC(C)=O)n[nH]1	inconclusive: 20.6 µM [cytotoxic, single point]	
O=C(O)CCCCCNS(=O)(=O)/C=C/c1ccccc1	inconclusive: 25.9 µM [rising, single point]	
CCOc1ccc(NC(=S)c2ccncc2)cc1	active: 20.6 µM	
